PubChem BioAssay AID743121 – NCATS – 2013
Purpose: 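Knock-downs that sensitise breast cancer cells to camptothecin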 (primary screen). System: MDA-MB-231 cells, a human breast cancer line. Knock-down reagent: single siRNA against human genes, 20 nM siRNA (0.8 pmol per well). Time to read-out: 120 h (drug added 48 h after transfection, read 72 h later). Challenge: camptothecin 20 nM (about EC30) for 72 h; vehicle 0.1% DMSO in parallel plates. Measured: 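Cell viability by ATP luminescence (CellTiter-Glo) as % of non-targeting siRNA wells, and the log2 ratio of viability without drug over viability with camptothecin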. Reading the numbers: log2 vehicle/camptothecin viability: higher = stronger sensitisation to camptothecin. Call rule: 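Active genes have an RSA gene-level p-value below 0.001, computed from the ratios of their separate siRNAs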.
The deposit covers about 26,000 reagents; shown is a part drawn at random. 167 of them (0.63%) count as active. 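Calls are per gene from RSA p-values that are not deposited; an individual active-marked siRNA can sensitise only weakly.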 A number with no mark means an inactive call. The numbers tell different reagents against one gene apart. Further read-outs or replicates are left out here.

What did the screen give for MTTP (microsomal triglyceride transfer protein) #1?
log2 vehicle/camptothecin viability: 0.899

What is on record for MTTP (microsomal triglyceride transfer protein) #2?
log2 vehicle/camptothecin viability: -0.0504

With MTTP (microsomal triglyceride transfer protein) #3, how do the results read?
log2 vehicle/camptothecin viability: 0.0606

What did the screen give for MTTP (microsomal triglyceride transfer protein) #4?
log2 vehicle/camptothecin viability: 0.069

What did the screen give for GSDME (gasdermin E) #1?
log2 vehicle/camptothecin viability: -0.172

What is on record for GSDME (gasdermin E) #2?
log2 vehicle/camptothecin viability: 0.0185

How did the screen score GSDME (gasdermin E) #3?
log2 vehicle/camptothecin viability: -0.413

What is on record for GSDME (gasdermin E) #4?
log2 vehicle/camptothecin viability: 0.149

Which result is listed for SIGLEC10 (sialic acid binding Ig like lectin 10) #1?
log2 vehicle/camptothecin viability: 0.0228

Which result is listed for SIGLEC10 (sialic acid binding Ig like lectin 10) #2?
log2 vehicle/camptothecin viability: -0.469

What is on record for SIGLEC10 (sialic acid binding Ig like lectin 10) #3?
log2 vehicle/camptothecin viability: -0.0683

With ARHGAP32 (Rho GTPase activating protein 32) #1, how do the results read?
log2 vehicle/camptothecin viability: 0.0493

What is on record for ARHGAP32 (Rho GTPase activating protein 32) #2?
log2 vehicle/camptothecin viability: -0.123

How did the screen score ARHGAP32 (Rho GTPase activating protein 32) #3?
log2 vehicle/camptothecin viability: -0.147

What did the screen give for SCN9A (sodium voltage-gated channel alpha subunit 9) #1?
log2 vehicle/camptothecin viability: -0.623

For SCN9A (sodium voltage-gated channel alpha subunit 9) #2, how do the results read?
log2 vehicle/camptothecin viability: 0.0263

With SCN9A (sodium voltage-gated channel alpha subunit 9) #3, what does the deposit list?
log2 vehicle/camptothecin viability: 0.0107

For SCN9A (sodium voltage-gated channel alpha subunit 9) #4, how do the results read?
log2 vehicle/camptothecin viability: -0.0847

With AMD1 (adenosylmethionine decarboxylase 1) #1, how do the results read?
log2 vehicle/camptothecin viability: -0.551

With AMD1 (adenosylmethionine decarboxylase 1) #2, what was measured?
log2 vehicle/camptothecin viability: -0.263

For AMD1 (adenosylmethionine decarboxylase 1) #3, what was measured?
log2 vehicle/camptothecin viability: -0.288

For AMD1 (adenosylmethionine decarboxylase 1) #4, what was measured?
log2 vehicle/camptothecin viability: -0.384

What did the screen give for DUSP7 (dual specificity phosphatase 7) #1?
log2 vehicle/camptothecin viability: 0.173

With DUSP7 (dual specificity phosphatase 7) #2, what does the deposit list?
log2 vehicle/camptothecin viability: 0.406

With DUSP7 (dual specificity phosphatase 7) #3, how do the results read?
log2 vehicle/camptothecin viability: -0.753

Which result is listed for DUSP7 (dual specificity phosphatase 7) #4?
log2 vehicle/camptothecin viability: -0.725

Already shown: an excerpt of the list.
AMD1 (adenosylmethionine decarboxylase 1) #2 | log2 vehicle/camptothecin viability = -0.263
AMD1 (adenosylmethionine decarboxylase 1) #3 | log2 vehicle/camptothecin viability = -0.288
AMD1 (adenosylmethionine decarboxylase 1) #4 | log2 vehicle/camptothecin viability = -0.384
